# Source: article PMC8550248
# No constants are given. Whether binding was seen depends on the method and setting. Binding seen in cells or lysates may run through a third protein. These calls come from enrichment with a bait or labelling near it, and not all partners need be listed. No binding means not detected with the bait.
# B1: DiGeorge syndrome critical region 8 (DGCR8) (endogenous) (protein, UniProt Q8WYQ5 1-773)
# chain: METDESPSPLPCGPAGEAVMESRARPFQALPREQSPPPPLQTSSGAEVMDVGSGGDGQSELPAEDPFNFYGASLLSKGSFSKGRLLIDPNCSGHSPRTARHAPAVRKFSPDLKLLKDVKISVSFTESCRSKDRKVLYTGAERDVRAECGLLLSPVSGDVHACPFGGSVGDGVGIGGESADKKDEENELDQEKRVEYAVLDELEDFTDNLELDEEGAGGFTAKAIVQRDRVDEEALNFPYEDDFDNDVDALLEEGLCAPKKRRTEEKYGGDSDHPSDGETSVQPMMTKIKTVLKSRGRPPTEPLPDGWIMTFHNSGVPVYLHRESRVVTWSRPYFLGTGSIRKHDPPLSSIPCLHYKKMKDNEEREQSSDLTPSGDVSPVKPLSRSAELEFPLDEPDSMGADPGPPDEKDPLGAEAAPGALGQVKAKVEVCKDESVDLEEFRSYLEKRFDFEQVTVKKFRTWAERRQFNREMKRKQAESERPILPANQKLITLSVQDAPTKKEFVINPNGKSEVCILHEYMQRVLKVRPVYNFFECENPSEPFGASVTIDGVTYGSGTASSKKLAKNKAARATLEILIPDFVKQTSEEKPKDSEELEYFNHISIEDSRVYELTSKAGLLSPYQILHECLKRNHGMGDTSIKFEVVPGKNQKSEYVMACGKHTVRGWCKNKRVGKQLASQKILQLLHPHVKNWGSLLRMYGRESSKMVKQETSDKSVIELQQYAKKNKPNLHILSKLQEEMKRLAEEREETRKKPKMSIVASAQPGGEPLCTVDV
# Molecular target: SFB-p53 (amino acids 100 to 355) (human) (UniProt P04637)
# Experiment: affinity purification with mass spectrometry; nuclear extract (BC100 buffer) of H1299 stably expressing SFB-p53 (100-355); Streptavidin beads, biotin elution, then S protein beads, glycine elution; LC-MS/MS
binder,measurement,value
B1,binding,no binding
